Data on one molecule can be found in publication PMC13523842.

Experiment [1] concerns the target T1, Aubergine (Aub), endogenous (Drosophila melanogaster (endogenous in ovaries)) (UniProt O76922).
T1 sequence: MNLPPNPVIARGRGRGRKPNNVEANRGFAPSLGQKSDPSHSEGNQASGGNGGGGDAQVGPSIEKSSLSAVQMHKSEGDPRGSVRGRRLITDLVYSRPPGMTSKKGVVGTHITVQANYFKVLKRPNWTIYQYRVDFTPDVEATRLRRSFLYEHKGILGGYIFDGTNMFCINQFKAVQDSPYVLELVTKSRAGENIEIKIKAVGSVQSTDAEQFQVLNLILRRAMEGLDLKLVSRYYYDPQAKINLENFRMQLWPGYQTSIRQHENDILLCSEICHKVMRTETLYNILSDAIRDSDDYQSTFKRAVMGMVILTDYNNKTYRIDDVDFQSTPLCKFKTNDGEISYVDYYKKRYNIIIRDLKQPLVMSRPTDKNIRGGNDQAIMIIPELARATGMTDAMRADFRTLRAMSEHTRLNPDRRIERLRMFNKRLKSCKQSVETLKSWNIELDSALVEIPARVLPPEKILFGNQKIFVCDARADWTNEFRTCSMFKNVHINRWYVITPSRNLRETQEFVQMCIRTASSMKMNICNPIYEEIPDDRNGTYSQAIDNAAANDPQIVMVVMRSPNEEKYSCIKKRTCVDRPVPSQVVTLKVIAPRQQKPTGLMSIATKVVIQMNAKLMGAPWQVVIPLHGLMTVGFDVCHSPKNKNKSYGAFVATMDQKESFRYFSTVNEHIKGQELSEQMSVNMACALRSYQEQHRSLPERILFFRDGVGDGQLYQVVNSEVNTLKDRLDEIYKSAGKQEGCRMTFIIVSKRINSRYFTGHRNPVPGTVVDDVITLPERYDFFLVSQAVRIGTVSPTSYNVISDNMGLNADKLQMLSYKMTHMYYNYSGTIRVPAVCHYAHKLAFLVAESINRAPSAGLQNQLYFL
The experiment in a line: co-IP; Aub precipitated with anti-Aub antibodies from heterozygous control ovary lysate; blot for Spn-E; no-antibody negative control.

Experiment [2] addresses T1, Aubergine (Aub), endogenous (Drosophila melanogaster (endogenous in ovaries)). In words: co-IP; Aub precipitated with anti-Aub antibodies from squ^PP32/HE47 mutant ovary lysate; blot for Spn-E; no-antibody negative control.

No constants are given. Whether binding was seen depends on the method and setting. In cells and extracts the contact can be indirect. Some entries that bind do so weakly or less than the wild type.

B1: Spindle-E (Spn-E), endogenous (protein, UniProt Q9VF26 1-1434)
chain: MDQEVMDFFDFSKELKRVAAAPQGYISSDPRLMATKFKSSEVPNRELIGTDYVSKIVAKEKCLLNGTLLNEQPQGKRIRTLDDLDTDDEGEETEIRRDDEYYKKFRFNLNRDKNLSIYAKREEILAAINAHPVVIIKGETGCGKTTQVPQYILDEAYKSGKYCNIVVTQPRRIAAISIANRVCQEREWQQNTVCSFQVGLHRPNSLEDTRLLYCTTGVLLNNLINNKTLTHYTHIVLDEVHERDQNMDFLLIVVRRLLATNSRHVKIILMSATIDAKELSDYFTTTNSIPPVITTNHRRKHSIEKFYRDQLGSIIWNEEDVGHQQVPEINKHGYRAAVKIIVIIDNMERKAAIQSRQSYDEALRYGAVLIFLPGIYEIDTMAENLTCMLENDPNIKVSIVRCFSLMTPENQRDVFNPPPPGFRKIILTTNIAESSITVPDVSYVIDFCLAKVKVTDTASSFSSLRLTWASKANCRQRAGRVGRLRSGRVYRMVNKHFYQREMPEFGIPEMLRLPLQNSVLKAKVLNMGSPVEILALALSPPNLSDIHNTILLLKEVGALYLTVDGIYDPLDGDLTYWGTIMSRLPLDTRQSRLIILGYIFNMLEEAIIIAAGLSTPGLFAHEGGRSQLGDSFWMHYIFSDGSGSDLVAIWRVYLTYLNIVENGHDQESAIRWAKRFHVSLRSLKEIHLLVQELRVRCTHLGLIPFPVNPNQMMDDREKAIMLKVIIAGAFYPNYFTRSKESCADTDRNIYQTISGHDPCRTVYFTNFKPAYMGELYTRRIKELFQEVRIPPENMDVTFQEGSQKVFVTFKQDDWIEGSSKYVPVSGRVQSEVYKAVMMRQNRVERPIHIMNPSAFMSYVQQRGIGDVIEGRWIPPTKPLNVELLALPSVFDKTISGSITCIVNCGKFFFQPQSFEECIRNMSEIFNAPQQLRNYVTNASAIAKGMMVLAKRDSYFQRATVIRPENQSNRQPMFYVRFIDYGNCTLLPMQLMRLMPRELTEQYGDLPPRVFECRLAMVQPSSVVSGNNRWSTAANDMLKTVAQCGLIDIEVYSLFNNVAAVLIHMRDGIINDKLVELMLCRRSDEDYMSRKDHDFRLRRQESARNLSTAQRQQINEEYLRSCQLPQDHDLPPPPLEKCKTVVMLKGPNSPLECTMRSITRVGLSKRVNIDHLSVNALLLDADPQDHHDHLIVAHEIAESRNGQTLTARGTTLMPNVQGFGALMVMLFSPTMQLKCNKEGTSYVSVLGGLGCDPDTNEPYFAEHDVLINLDVNILEDDVILINQIRYYIDSVFFNFKEENNPAVSVNERVSIYTQLRSLINRLLCKDRRYIERNMSNADFEWETNPELPLPNEPFGKRAIFPMHSLTELQEEDTGRLVQLRENCSMLHKWRNFEGTLPHMTCKLCNQLLESVPQLRLHLLTILHRDREKQIDYCNQ
B1: the binding entry in experiment [1] is reported as “binds weakly”; in experiment [2], “binds”.
